Here are results for eleven molecules from the supplement of paper PMC4840960.

This test deals with E18 rat cortical neuron-glia co-culture. Put plainly: total nuclei (DAPI) / Olig2+ nuclei (ratio); higher = more depletion of OPC/OL lineage cells. As to conditions: treatment time: 8 days (DIV5-DIV13).

This is one part of the list. Part of the spread comes from offsets between plates or batches.

Take `CCCCCCNC(=O)n1cc(F)c(=O)[nH]c1=O` [Carmofur]: the total nuclei reads like this: (1 µM) 3.38; (5 µM) 4.
`CN(C)CCOC(C)(c1ccccc1)c1ccccn1` (configuration not stated) [Doxylamine]: the total nuclei is, setting by setting: (1 µM) 2.79; (5 µM) 2.8.
Take `Cc1cnc(C(=O)NCCc2ccc(S(=O)(=O)NC(=O)NC3CCCCC3)cc2)cn1` [Glipizide]: the total nuclei runs as follows: (1 µM) 2.9; (5 µM) 3.
For `CN1CCN(CC/C=C2/c3ccccc3Sc3ccc(S(=O)(=O)N(C)C)cc32)CC1` [Thiothixene], the total nuclei is 4.19 (1 µM) and 10.5 (5 µM).
For the molecule `CCCc1c(OCCCCc2nnn[nH]2)ccc(C(C)=O)c1O`, the total nuclei reads like this: (1 µM) 3.6; (5 µM) 3.6.
With `Cc1nnc(SCC2=C(C(=O)O)N3C(=O)[C@@H](NC(=O)Cn4cnnn4)[C@H]3SC2)s1` [Cefazolin], the total nuclei came out at 3.2 (1 µM) and 2.9 (5 µM).
For `Cc1nc2ccccn2c(=O)c1CCN1CCC(C(=O)c2ccc(F)cc2)CC1` [Pirenperone], the total nuclei reads like this: (1 µM) 2.84; (5 µM) 2.6.
In the same order, the values of `CC[C@]1(O)C[C@H]2CN(CCc3c([nH]c4ccccc34)[C@@](C(=O)OC)(c3cc4c(cc3OC)N(C=O)[C@H]3[C@@](O)(C(=O)OC)[C@H](OC(C)=O)[C@]5(CC)C=CCN6CC[C@]43[C@@H]65)C2)C1` [Vincristine] are above 40 and above 40.
Regarding `CCC(C)n1ncn(-c2ccc(N3CCN(c4ccc(OCC5COC(Cn6cncn6)(c6ccc(Cl)cc6Cl)O5)cc4)CC3)cc2)c1=O` (configuration not stated) [Itraconazole], the total nuclei (1 µM) is 11.2 and the total nuclei (5 µM) turned out to be 23.5.
Consider `CN1CCN(CCCN2c3ccccc3Sc3ccc(Cl)cc32)CC1` [Prochlorperazine], for which the total nuclei by setting is: (1 µM) 5; (5 µM) 5.2.
Consider `C[C@@H](O)[C@H]1C(=O)N2C(C(=O)O)=C(S[C@@H]3CN[C@H](C(=O)N(C)C)C3)[C@H](C)[C@H]12` [Meropenem], for which the total nuclei stood at 3.89 (1 µM) and 4.3 (5 µM).
